Earlier results on 1 compound are cited in patent US20120251595A1, “EMULSION TEMPLATE METHOD TO FORM SMALL PARTICLES OF HYDROPHOBIC AGENTS WITH SURFACE ENRICHED HYDROPHILICITY BY ULTRA RAPID FREEZING” (BOARD OF REGENTS, THE UNIVERSITY OF TEXAS SYSTEM, priority 2009, published 2012).

Values after ≈ are worked out from the molar mass of the structure shown.

The conditions of the series: reported; cited from earlier work.

On to `CCC(C)n1ncn(-c2ccc(N3CCN(c4ccc(OCC5COC(Cn6cncn6)(c6ccc(Cl)cc6Cl)O5)cc4)CC3)cc2)c1=O` (centres unmarked) [ITZ, itraconazole], for which the “Solubility in acidic media” value is reported as “approximately 4 μg/mL” and the “Solubility in neutral media” value was around 1 ng/mL (≈ 1.42 nM).
